The supplement of paper PMC10849652
The list shows a part of the results.

The chains behind the UniProt entries cited, without tags or fusion partners. Where a name states a change or a piece, a line headed by the entry shows the natural chain unless it says otherwise.
UniProt Q9NUJ1: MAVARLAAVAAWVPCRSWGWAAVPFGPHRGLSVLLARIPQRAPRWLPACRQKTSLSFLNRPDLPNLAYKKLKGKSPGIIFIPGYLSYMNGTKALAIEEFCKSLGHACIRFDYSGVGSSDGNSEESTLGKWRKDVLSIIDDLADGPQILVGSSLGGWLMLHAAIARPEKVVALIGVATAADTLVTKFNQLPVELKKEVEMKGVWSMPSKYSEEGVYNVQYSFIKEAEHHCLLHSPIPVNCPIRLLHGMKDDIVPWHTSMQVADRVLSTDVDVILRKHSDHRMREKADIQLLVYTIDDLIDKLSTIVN
UniProt Q9H3P7: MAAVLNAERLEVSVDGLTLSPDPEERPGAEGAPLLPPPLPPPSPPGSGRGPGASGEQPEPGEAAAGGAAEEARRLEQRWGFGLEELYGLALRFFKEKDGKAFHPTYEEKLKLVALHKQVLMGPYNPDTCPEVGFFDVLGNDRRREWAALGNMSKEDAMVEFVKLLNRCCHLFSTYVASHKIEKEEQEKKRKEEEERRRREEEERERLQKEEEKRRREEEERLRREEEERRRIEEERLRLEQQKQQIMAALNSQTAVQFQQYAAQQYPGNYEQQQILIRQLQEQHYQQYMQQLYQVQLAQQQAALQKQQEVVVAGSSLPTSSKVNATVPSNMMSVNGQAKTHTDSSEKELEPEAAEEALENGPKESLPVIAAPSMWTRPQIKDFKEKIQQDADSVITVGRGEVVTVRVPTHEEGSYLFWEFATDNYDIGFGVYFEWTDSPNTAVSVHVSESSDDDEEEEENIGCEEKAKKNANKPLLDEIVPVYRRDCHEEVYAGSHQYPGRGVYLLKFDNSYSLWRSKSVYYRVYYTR
UniProt O15254: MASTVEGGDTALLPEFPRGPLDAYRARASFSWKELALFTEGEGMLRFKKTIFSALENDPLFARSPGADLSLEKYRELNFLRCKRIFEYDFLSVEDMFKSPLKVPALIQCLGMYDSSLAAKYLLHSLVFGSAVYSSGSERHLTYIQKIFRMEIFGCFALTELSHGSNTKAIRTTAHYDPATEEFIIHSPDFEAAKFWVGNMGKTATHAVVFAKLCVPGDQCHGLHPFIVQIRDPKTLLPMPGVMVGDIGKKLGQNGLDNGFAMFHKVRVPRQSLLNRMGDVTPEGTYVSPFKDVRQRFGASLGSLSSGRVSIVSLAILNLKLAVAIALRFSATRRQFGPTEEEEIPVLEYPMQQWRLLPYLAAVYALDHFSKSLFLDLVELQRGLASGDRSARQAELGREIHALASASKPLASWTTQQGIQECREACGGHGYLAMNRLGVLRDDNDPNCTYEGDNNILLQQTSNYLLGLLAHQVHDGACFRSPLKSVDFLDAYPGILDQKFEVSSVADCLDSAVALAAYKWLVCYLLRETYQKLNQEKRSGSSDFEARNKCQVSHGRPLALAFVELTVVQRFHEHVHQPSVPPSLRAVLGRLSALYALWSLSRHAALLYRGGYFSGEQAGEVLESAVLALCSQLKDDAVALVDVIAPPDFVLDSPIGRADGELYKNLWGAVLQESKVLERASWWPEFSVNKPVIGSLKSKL
UniProt P53396: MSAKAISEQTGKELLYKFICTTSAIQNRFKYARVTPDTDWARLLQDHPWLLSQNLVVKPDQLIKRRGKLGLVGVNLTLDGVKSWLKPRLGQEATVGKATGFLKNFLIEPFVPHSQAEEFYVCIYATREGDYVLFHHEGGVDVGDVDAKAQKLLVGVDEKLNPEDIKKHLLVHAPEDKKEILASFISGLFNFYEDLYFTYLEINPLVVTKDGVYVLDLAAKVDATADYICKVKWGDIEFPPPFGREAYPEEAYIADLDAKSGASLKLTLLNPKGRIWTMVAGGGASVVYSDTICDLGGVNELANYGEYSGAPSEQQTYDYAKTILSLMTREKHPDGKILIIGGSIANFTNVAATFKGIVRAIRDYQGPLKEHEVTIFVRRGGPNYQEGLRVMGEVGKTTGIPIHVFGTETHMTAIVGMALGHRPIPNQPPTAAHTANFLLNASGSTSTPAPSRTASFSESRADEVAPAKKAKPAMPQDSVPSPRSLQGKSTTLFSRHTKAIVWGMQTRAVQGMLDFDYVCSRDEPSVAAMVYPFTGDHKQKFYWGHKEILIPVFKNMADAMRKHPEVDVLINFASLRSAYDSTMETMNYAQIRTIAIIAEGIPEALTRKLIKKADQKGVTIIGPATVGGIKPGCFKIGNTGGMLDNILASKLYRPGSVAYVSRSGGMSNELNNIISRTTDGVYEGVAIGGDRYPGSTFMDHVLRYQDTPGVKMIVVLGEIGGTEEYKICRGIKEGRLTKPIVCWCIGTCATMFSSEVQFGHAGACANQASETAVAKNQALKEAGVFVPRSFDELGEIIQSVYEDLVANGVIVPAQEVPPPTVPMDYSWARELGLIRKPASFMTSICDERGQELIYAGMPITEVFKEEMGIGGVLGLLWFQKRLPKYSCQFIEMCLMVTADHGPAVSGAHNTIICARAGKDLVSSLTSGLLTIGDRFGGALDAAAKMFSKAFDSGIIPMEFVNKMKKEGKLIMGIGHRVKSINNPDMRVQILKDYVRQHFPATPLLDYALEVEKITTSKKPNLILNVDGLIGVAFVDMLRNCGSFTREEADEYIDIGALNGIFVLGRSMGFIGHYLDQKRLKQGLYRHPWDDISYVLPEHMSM
UniProt P42765: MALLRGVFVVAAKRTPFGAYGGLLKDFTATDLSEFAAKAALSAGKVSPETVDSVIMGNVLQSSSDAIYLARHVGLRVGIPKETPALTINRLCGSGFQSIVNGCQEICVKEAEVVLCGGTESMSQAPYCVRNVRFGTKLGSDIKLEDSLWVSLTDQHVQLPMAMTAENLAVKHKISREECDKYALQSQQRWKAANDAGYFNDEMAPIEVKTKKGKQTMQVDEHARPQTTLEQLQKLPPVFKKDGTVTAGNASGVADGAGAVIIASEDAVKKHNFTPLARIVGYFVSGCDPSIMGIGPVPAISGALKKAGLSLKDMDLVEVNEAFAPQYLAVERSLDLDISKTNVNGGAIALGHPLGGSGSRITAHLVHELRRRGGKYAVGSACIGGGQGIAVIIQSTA
UniProt Q96IU4: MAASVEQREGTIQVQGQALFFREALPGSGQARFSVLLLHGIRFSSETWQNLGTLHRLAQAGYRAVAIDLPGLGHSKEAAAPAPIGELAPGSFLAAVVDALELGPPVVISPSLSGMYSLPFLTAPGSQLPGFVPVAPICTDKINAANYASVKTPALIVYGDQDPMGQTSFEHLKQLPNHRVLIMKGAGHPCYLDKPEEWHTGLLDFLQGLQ
UniProt Q96EY9: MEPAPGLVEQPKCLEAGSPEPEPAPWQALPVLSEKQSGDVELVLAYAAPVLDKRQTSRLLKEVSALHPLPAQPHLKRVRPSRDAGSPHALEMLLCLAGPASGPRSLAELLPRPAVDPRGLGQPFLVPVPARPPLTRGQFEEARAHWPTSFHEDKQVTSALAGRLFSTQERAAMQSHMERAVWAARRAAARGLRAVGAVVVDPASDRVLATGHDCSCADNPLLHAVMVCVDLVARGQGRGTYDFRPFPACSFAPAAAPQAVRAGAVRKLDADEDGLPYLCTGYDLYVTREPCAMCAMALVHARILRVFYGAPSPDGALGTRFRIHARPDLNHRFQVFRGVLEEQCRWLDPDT
UniProt O14734: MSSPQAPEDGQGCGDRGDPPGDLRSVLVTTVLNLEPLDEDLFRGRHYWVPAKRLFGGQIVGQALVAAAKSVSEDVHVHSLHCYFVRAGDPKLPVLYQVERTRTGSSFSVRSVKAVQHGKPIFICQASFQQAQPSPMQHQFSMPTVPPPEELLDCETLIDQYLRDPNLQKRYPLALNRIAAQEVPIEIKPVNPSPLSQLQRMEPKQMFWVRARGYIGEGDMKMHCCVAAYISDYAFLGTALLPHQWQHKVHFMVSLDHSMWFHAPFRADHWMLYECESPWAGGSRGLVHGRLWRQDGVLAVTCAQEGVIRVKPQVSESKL
UniProt A8K2U0: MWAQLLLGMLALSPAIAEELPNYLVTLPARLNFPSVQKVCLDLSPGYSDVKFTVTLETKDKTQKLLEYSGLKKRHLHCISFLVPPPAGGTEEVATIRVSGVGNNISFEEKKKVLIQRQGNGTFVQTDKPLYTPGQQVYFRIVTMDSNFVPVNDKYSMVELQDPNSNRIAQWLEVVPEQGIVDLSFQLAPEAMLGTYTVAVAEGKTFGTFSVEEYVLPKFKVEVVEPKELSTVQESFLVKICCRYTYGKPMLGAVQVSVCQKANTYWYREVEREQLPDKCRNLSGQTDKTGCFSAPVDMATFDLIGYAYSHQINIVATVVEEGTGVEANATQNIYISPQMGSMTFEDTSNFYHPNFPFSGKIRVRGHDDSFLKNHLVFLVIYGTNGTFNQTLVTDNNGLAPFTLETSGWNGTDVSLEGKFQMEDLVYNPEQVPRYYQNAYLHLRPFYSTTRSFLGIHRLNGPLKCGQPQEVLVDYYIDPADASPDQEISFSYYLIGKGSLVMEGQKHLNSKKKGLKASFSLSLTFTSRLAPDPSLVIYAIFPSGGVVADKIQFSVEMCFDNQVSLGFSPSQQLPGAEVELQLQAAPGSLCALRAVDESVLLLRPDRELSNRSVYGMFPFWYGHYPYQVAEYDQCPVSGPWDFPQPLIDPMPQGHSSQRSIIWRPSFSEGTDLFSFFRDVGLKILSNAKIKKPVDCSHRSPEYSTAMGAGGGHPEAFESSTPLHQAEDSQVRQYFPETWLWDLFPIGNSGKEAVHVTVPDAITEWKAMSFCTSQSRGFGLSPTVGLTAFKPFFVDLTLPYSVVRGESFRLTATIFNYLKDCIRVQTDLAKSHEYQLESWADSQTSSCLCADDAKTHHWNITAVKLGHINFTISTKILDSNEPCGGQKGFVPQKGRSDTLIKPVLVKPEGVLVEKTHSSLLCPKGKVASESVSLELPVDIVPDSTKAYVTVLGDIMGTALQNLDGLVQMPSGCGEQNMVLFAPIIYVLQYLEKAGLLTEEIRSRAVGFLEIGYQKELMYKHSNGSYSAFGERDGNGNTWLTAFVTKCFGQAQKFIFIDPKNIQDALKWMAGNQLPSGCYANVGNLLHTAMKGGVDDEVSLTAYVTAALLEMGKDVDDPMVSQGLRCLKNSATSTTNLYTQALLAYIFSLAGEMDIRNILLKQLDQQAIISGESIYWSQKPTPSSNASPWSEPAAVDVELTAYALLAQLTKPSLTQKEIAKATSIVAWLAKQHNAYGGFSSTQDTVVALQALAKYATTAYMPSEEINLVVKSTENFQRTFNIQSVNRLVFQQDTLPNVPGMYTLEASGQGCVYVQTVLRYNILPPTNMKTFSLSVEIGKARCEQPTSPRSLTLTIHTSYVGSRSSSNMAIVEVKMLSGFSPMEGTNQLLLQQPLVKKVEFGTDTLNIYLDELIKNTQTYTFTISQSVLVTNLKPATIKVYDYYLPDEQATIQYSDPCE
UniProt Q9UNA0: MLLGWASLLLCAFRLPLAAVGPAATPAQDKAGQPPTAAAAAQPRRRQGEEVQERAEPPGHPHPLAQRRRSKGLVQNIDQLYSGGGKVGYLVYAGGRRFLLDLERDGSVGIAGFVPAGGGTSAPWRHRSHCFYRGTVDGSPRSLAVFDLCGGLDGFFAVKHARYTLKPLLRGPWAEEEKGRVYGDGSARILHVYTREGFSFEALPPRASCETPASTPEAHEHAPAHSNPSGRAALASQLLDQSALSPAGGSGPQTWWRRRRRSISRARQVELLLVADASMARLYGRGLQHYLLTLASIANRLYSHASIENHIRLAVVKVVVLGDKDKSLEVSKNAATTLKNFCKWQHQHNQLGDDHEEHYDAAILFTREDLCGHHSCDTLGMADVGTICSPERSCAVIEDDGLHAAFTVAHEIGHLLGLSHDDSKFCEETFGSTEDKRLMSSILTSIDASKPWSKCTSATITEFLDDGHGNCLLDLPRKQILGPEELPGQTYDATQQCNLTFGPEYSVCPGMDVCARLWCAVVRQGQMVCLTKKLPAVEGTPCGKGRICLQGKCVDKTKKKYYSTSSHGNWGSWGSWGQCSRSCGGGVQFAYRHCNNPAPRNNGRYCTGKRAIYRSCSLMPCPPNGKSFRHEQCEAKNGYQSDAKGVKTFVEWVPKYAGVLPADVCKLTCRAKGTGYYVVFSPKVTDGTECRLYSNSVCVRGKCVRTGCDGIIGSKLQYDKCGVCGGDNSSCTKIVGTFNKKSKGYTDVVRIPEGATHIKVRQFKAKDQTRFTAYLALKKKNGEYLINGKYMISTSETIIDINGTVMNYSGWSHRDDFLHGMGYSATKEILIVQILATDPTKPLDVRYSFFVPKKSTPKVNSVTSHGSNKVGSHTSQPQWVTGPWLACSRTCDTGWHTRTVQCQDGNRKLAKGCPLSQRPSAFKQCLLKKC
UniProt Q9BUJ0: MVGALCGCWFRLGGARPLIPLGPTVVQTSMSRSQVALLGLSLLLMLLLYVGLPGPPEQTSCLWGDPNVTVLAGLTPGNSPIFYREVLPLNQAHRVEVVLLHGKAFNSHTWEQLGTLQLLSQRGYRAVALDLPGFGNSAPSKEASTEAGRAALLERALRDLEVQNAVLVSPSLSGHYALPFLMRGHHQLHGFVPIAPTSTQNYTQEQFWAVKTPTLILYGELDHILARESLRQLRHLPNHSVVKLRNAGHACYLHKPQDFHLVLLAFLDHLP

Columns and labels:
Experiment in all cases: log2 fold change, soluble protein after heating vs DMSO (PISA); higher = thermal stabilisation; K562 cells, 10 uM, 30 min; active = over 0.2 and 3.5 SD of the protein, either way, in both replicates (recomputed)
[1] = compound: NC(=O)Nc1cc(-c2cccc(F)c2)sc1C(=O)N[C@H]1CCCNC1
Summary of the method: (§1)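 K562 cells (2×10^6 cells/mL) were treated with 10 μM compound for 30 min, and aliquots were heated for 3 min over 48°C-58°C. Pooled aliquots were extracted in PBS with 0.5% NP-40 at 4°C, and the supernatant after 21,000xg for 90 min was measured by TMTpro 16plex LC-MS/MS with channel sums equalised. Reported thermal stability, relative to control samples and from duplicates, is a log2 fold change.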

[2] = compound: NC(=O)c1cnc(N[C@@H]2CCCC[C@@H]2N)nc1Nc1cccc(-n2nccn2)c1
Summary of the method: as §1

[3] = compound: NC1(c2ccc(-c3nc4ccn5c(=O)[nH]nc5c4cc3-c3ccccc3)cc2)CCC1
Summary of the method: as §1

[4] = compound: NCC(=O)Nc1ccc(-n2nc(C(F)(F)F)cc2-c2ccc3c(ccc4ccccc43)c2)cc1
Summary of the method: as §1

[5] = compound: Nc1ccccc1NC(=O)c1ccc(CNC(=O)OCc2cccnc2)cc1 [entinostat]
Summary of the method: as §1

[6] = compound: O=C(CCCCCCC(=O)Nc1ccccc1)NO [vorinostat]
Summary of the method: as §1

[7] = compound: O=C(CCCCCCNC(=O)c1cnc(N(c2ccccc2)c2ccccc2Cl)nc1)NO [citarinostat]
Summary of the method: as §1

[8] = compound: O=C(O)c1ccc2c(c1)nc(Nc1cccc(Cl)c1)c1ccncc12 [silmitasertib]
Summary of the method: as §1

[9] = compound: O=C1NC(=O)C(c2cnc3ccccn23)=C1c1cn2c3c(cc(F)cc13)CN(C(=O)N1CCCCC1)CC2
Summary of the method: as §1

[10] = compound: c1cc(OCCN2CCCCC2)cc(-c2n[nH]c3ccc(-c4nnc[nH]4)cc23)c1
Summary of the method: as §1

[11] = compound: c1cn2cc(-c3ccc4cn[nH]c4c3)nc(Nc3ccc(N4CCOCC4)cc3)c2n1 [entospletinib]
Summary of the method: as §1

Measured: log2 fold change

ABHD10 (UniProt Q9NUJ1)
inactive: [1] 0.02 | [2] 0.093 | [3] -0.008 | [4] 0 | [5] 0.008 | [6] -0.022 | [7] 0.063 | [8] 0.056 | [9] -0.038 | [10] -0.033 | [11] 0.037

ABCC10 (UniProt Q5T3U5)
inactive: [1] -0.089 | [2] -0.1 | [4] -0.219 | [5] 0.015 | [6] -0.097 | [9] -0.07

ACBD3 (UniProt Q9H3P7)
inactive: [1] -0.017 | [2] 0.066 | [3] -0.016 | [4] 0.006 | [5] -0.046 | [6] 0.007 | [7] -0.009 | [8] -0.039 | [9] -0.046 | [10] 0.005 | [11] 0.027

ACTB, A0A2R8YEA7
inactive: [1] -0.284 | [2] 0.141 | [3] 0.036 | [4] 0.168 | [5] -0.52 | [7] 0.216 | [8] -0.114 | [10] 0.036 | [11] -0.049

ACOX3 (UniProt O15254)
inactive: [1] -0.084 | [2] 0.004 | [3] -0.09 | [4] 0.16 | [5] 0.071 | [7] 0.287 | [8] -0.302 | [9] -0.022 | [10] -0.016

ACTR2 (UniProt P61160)
inactive: [1] -0.003 | [2] -0.02 | [3] -0.004 | [4] -0.022 | [5] -0.027 | [6] -0.003 | [7] -0.003 | [8] 0.01 | [9] -0.044 | [10] 0.004 | [11] -0.003

ACTN4 (UniProt O43707)
inactive: [1] 0 | [2] -0.012 | [3] 0.022 | [4] -0.018 | [5] -0.046 | [6] -0.009 | [7] -0.027 | [8] -0.002 | [9] -0.051 | [10] -0.007 | [11] -0.011

ACLY (UniProt P53396)
inactive: [1] -0.016 | [2] -0.014 | [3] -0.06 | [4] -0.008 | [5] 0 | [6] -0.001 | [7] 0.03 | [8] 0.01 | [9] -0.023 | [10] -0.044 | [11] -0.066

ABI2 (UniProt Q9NYB9)
inactive: [1] -0.094 | [2] -0.064 | [3] -0.112 | [4] -0.124 | [5] 0.035 | [6] 0.07 | [7] -0.014 | [8] -0.028 | [9] -0.077 | [10] -0.051 | [11] 0.007

ACAT1, A0A5F9ZHJ0
inactive: [1] -0.02 | [2] -0.105 | [3] -0.183 | [5] 0.001 | [6] -0.094 | [7] -0.138 | [8] 0.054 | [9] -0.044 | [10] -0.173 | [11] -0.147

ABCE1 (UniProt H0Y990)
inactive: [1] 0.175 | [2] -0.312 | [3] -0.062 | [4] -0.265 | [5] -0.022 | [6] -0.055 | [7] -0.012 | [8] 0.002 | [9] -0.001 | [10] -0.036 | [11] -0.173

ACTN1 (UniProt H9KV75)
inactive: [1] 0.19 | [2] 0.051 | [3] -0.292 | [4] 0.018 | [5] -0.078 | [7] 0.089 | [8] -0.036 | [9] 0.119 | [10] 0.226 | [11] -0.333

ACTL8 (UniProt Q9H568)
inactive: [1] -0.024 | [2] -0.049 | [3] 0.025 | [4] 0.145 | [5] 0.012 | [6] 0.077 | [7] -0.041 | [8] 0.011 | [9] 0.152 | [10] -0.062 | [11] -0.063

ACAA2 (UniProt P42765)
inactive: [1] -0.012 | [2] -0.001 | [3] 0.003 | [4] -0.004 | [5] -0.008 | [6] -0.051 | [7] -0.039 | [8] -0.011 | [9] -0.054 | [10] 0.014 | [11] 0.018

ABHD14B (UniProt Q96IU4)
inactive: [1] 0.021 | [2] -0.031 | [3] -0.036 | [4] -0.012 | [5] -0.014 | [6] 0.028 | [7] 0.062 | [8] -0.006 | [9] -0.064 | [10] -0.016 | [11] -0.043

ABRAXAS2 (UniProt Q15018)
inactive: [1] 0.026 | [2] 0.02 | [3] 0.013 | [4] -0.011 | [5] -0.034 | [6] 0.053 | [7] 0 | [8] 0.011 | [9] -0.092 | [10] -0.005 | [11] 0.005

ACTN4 (UniProt K7EJH8)
inactive: [1] 0.008 | [2] -0.094 | [3] 0.007 | [5] 0.027 | [6] -0.033 | [7] 0.017 | [8] -0.118 | [9] 0.031 | [10] -0.049 | [11] -0.086

ACTR3 (UniProt P61158)
inactive: [1] 0.008 | [2] 0.014 | [3] -0.041 | [4] -0.001 | [5] -0.045 | [6] -0.006 | [7] 0.009 | [8] 0.018 | [9] -0.023 | [10] -0.025 | [11] -0.023

ADAT3 (UniProt Q96EY9)
inactive: [1] -0.134 | [2] -0.049 | [3] 0.039 | [4] -0.096 | [5] -0.038 | [6] 0.082 | [7] 0.073 | [8] -0.136 | [9] -0.03 | [10] -0.024 | [11] -0.004

Six successive records from above, for reference:
ACTB, A0A2R8YEA7
inactive: [1] -0.284 | [2] 0.141 | [3] 0.036 | [4] 0.168 | [5] -0.52 | [7] 0.216 | [8] -0.114 | [10] 0.036 | [11] -0.049

ACOX3 (UniProt O15254)
inactive: [1] -0.084 | [2] 0.004 | [3] -0.09 | [4] 0.16 | [5] 0.071 | [7] 0.287 | [8] -0.302 | [9] -0.022 | [10] -0.016

ACTR2 (UniProt P61160)
inactive: [1] -0.003 | [2] -0.02 | [3] -0.004 | [4] -0.022 | [5] -0.027 | [6] -0.003 | [7] -0.003 | [8] 0.01 | [9] -0.044 | [10] 0.004 | [11] -0.003

ACTN4 (UniProt O43707)
inactive: [1] 0 | [2] -0.012 | [3] 0.022 | [4] -0.018 | [5] -0.046 | [6] -0.009 | [7] -0.027 | [8] -0.002 | [9] -0.051 | [10] -0.007 | [11] -0.011

ACLY (UniProt P53396)
inactive: [1] -0.016 | [2] -0.014 | [3] -0.06 | [4] -0.008 | [5] 0 | [6] -0.001 | [7] 0.03 | [8] 0.01 | [9] -0.023 | [10] -0.044 | [11] -0.066

ABI2 (UniProt Q9NYB9)
inactive: [1] -0.094 | [2] -0.064 | [3] -0.112 | [4] -0.124 | [5] 0.035 | [6] 0.07 | [7] -0.014 | [8] -0.028 | [9] -0.077 | [10] -0.051 | [11] 0.007

Further results follow:

ABCA4 (UniProt P78363)
inactive: [1] 0.007 | [2] -0.092 | [3] 0.061 | [5] 0.002 | [6] 0.124 | [7] 0.013 | [8] -0.082 | [9] -0.041 | [10] 0.157

ABCA3 (UniProt Q99758)
inactive: [1] 0.021 | [2] -0.001 | [4] -0.196 | [5] -0.064 | [6] 0.02 | [7] 0.021 | [9] 0.134 | [10] 0

ABCB7 isoform 2 (UniProt O75027)
inactive: [1] 0.011 | [2] -0.027 | [3] -0.099 | [4] -0.064 | [5] 0.016 | [6] 0.059 | [7] 0.039 | [8] -0.02 | [9] -0.027 | [10] -0.008 | [11] -0.089

ACOT8 (UniProt O14734)
inactive: [1] 0.056 | [2] -0.039 | [3] -0.009 | [4] 0.033 | [5] -0.054 | [6] -0.03 | [7] 0.045 | [8] 0.07 | [9] 0.067 | [10] -0.039 | [11] -0.023

ACTG1 (UniProt K7EM38)
inactive: [1] -0.06 | [2] -0.194 | [4] -0.007 | [5] 0.075 | [6] 0.246 | [7] 0.055 | [9] -0.113 | [10] 0.072 | [11] 0.02

ACLY isoform 2 (UniProt P53396)
inactive: [1] -0.106 | [2] 0.199 | [3] -0.236 | [4] -0.29 | [5] -0.061 | [7] -0.021 | [8] 0.086 | [9] -0.063 | [10] -0.277 | [11] -0.056

A2ML1 (UniProt A8K2U0)
inactive: [1] -0.615 | [2] 0.43 | [3] 0 | [4] -0.216 | [5] -0.367 | [7] -0.185 | [8] 0.383 | [10] 0.627 | [11] -0.231

ADAMTS5 (UniProt Q9UNA0)
inactive: [1] 0.026 | [2] -0.065 | [3] 0.074 | [4] -0.071 | [5] -0.08 | [6] 0.056 | [7] 0.074 | [8] -0.064 | [10] 0.051

ACAA2 (UniProt K7ER88)
inactive: [1] 0.06 | [2] -0.328 | [3] 0.503 | [4] -0.016 | [5] -0.045 | [7] 0.187 | [8] 0.064 | [9] 0.077 | [10] -0.032 | [11] -0.26

ABCB8 (UniProt Q9NUT2)
inactive: [1] -0.013 | [2] -0.059 | [3] -0.085 | [4] -0.083 | [5] 0.015 | [6] -0.021 | [7] -0.002 | [8] -0.013 | [9] -0.071 | [10] -0.048 | [11] -0.009

ACTB, A0A2R8YGF8
inactive: [3] 0.416 | [8] -0.083

ABHD14A (UniProt Q9BUJ0)
inactive: [1] -0.309 | [5] -0.136
